Data reported in paper PMC11180176.

Chains of the proteins cited; added tags and fusions are not shown.
UniProt P20823: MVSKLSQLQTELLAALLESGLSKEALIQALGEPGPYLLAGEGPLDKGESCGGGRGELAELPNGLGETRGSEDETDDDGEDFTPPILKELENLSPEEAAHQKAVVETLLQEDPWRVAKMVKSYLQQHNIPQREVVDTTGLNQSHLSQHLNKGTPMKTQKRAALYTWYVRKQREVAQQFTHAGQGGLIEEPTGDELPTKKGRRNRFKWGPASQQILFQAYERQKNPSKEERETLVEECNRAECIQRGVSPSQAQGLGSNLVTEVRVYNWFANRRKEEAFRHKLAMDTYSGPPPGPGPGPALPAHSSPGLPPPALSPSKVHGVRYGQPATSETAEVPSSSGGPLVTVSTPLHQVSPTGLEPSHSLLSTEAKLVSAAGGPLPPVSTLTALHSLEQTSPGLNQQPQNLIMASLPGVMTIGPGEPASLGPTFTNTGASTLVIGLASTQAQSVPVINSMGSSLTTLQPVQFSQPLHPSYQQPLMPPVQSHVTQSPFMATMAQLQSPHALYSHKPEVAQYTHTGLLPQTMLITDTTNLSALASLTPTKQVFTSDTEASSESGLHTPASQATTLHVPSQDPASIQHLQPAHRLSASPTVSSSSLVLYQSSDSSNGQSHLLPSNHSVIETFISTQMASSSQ

Target: T1, Flag-TRIM8 (Tripartite motif 8) (UniProt Q9BZR9)
T1 sequence: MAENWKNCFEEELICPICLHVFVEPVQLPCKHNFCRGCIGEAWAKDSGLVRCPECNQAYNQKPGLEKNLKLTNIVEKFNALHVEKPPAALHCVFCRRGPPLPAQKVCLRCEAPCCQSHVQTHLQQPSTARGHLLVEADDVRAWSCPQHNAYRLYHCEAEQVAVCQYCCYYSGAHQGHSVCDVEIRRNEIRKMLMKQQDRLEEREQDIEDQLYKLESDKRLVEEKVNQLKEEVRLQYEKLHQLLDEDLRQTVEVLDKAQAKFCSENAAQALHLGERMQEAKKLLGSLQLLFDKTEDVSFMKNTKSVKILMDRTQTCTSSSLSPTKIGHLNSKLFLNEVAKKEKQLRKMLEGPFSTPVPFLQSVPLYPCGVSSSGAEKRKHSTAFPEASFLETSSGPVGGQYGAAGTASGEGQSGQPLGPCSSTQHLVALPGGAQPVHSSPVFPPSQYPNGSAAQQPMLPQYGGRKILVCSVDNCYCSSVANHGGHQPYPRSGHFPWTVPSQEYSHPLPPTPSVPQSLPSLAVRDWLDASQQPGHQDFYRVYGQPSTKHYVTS
Test: affinity purification with mass spectrometry; HEK293T cells transfected with Flag-TRIM8 or control plasmids; supernatant incubated with anti-Flag affinity gel; washed gel sent for MS; proteins present in the control group counted as non-specific

**Q.** “HNF1α found by mass spectrometry with Flag-TRIM8 (from UniProt P20823 1-631)” was tested. Which binding did it give?
**A.** binds

These are yes or no findings as the source states them, for the method shown. In cells and extracts the contact can be indirect. These calls come from enrichment with a bait or labelling near it, and not all partners need be listed. Tags and fused reporters may be left off the sequences shown.
